Our source for the binding values is article doi:10.1101/2021.09.29.461190.

Assay [1] deals with T1, NET4A-GFP (Arabidopsis thaliana) (UniProt F4KEW8).
T1 sequence: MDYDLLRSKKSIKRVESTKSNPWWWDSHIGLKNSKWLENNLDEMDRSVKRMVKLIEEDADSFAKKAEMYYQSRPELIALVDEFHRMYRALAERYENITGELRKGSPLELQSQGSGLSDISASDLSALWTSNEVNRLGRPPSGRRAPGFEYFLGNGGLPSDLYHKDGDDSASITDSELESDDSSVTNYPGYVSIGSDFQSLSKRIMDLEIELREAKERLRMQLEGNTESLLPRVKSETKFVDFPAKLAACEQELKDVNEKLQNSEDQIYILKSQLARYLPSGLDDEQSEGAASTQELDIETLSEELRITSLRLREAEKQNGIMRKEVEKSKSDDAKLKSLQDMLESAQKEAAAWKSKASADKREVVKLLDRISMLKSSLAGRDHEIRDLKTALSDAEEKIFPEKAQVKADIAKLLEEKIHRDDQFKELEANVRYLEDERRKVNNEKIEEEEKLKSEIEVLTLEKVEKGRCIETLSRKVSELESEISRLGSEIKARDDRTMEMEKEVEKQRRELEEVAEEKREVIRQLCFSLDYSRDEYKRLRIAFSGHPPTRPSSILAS
Put plainly: FRET or BRET.

Assay [2] concerns the target T1, NET4A-GFP (Arabidopsis thaliana). Put plainly: co-IP.

Results are given in words; binding and its absence hold for the method and conditions named. Binding seen in cells or lysates may run through a third protein. Some results given as binding are weak or reduced against the parent protein; the word gives no strength. Where a sequence is shown, tags or fusion partners need not be part of it.

B1: NET4B-RFP (protein, UniProt Q84VY2 1-517)
chain: MASSTAQSKKQFKRSMTKKSHSWWWDSHNCPKNSKWLAENLEKMDDRVNHMLKLIEEDADSFAKKAQMYFQKRPELIQLVEEFYRMYRALAERYDQASGELQKNHTSEIQSQSSLEISSPTKEKLSRRQSSHKEEEDSSSLTDSGSDSDHSSANDEDGDEALIRRMAELELELQETKQKLLLQQESVDGDNNVDLLHKITTYEGELKEANEKMRMHEDEIANLKNQLQSFMSFDTEDHLGAEQKSVDLDKEDTKEDAVATKVLALEEELSIAKEKLQHFEKETYSLKNELEIGKAAEEKLKSLQHELELAQRDADTYINKLNAEKKEVLKLQERLAMVKTSLQDRDNEIRALKTAVSDAEQKIFPEKAQIKGEMSKMLEERSQLGEQLRELESHIRLIKEEKAETEEKLRGGTEKISGMRDESNVLREEIGKREEKIKETEKHMEELHMEQVRLRRRSSELTEEVERTRVSASEMAEQKREAIRQLCMSLDHYRDGYDRLWRVVAGHKSKRVVVLST
As for B1, the binding result in assay [1] and in assay [2] was “binds” throughout.
